Results are given in words; binding and its absence hold for the method and conditions named. Binding seen in cells or lysates may run through a third protein. Some binding calls cover weakened binding; strength is not graded here.
How the values were obtained:
[1] = molecular target: flag-tagged mouse Atp2a2b (SERCA2b) (mouse) (UniProt O55143); assay: co-IP; FLAG-SERCA2b from adipocyte lysate solubilised with 1% n-dodecyl β-D-maltoside, held on anti-FLAG M2 magnetic beads (2 h, 4°C), washed in 50 mM HEPES-NaOH pH 7.0, 100 mM NaCl, 20% glycerol, 100 μM CaCl2, 0.05% LMNG, eluted with 3X FLAG peptide; blot with a polyclonal antibody for C4orf3
[2] = molecular target: SERCA2b (mouse (endogenous in inguinal WAT-derived adipocytes)) (UniProt O55143); assay: cross-linking; 15 μg beige adipocyte microsomes, 1 mM BMH, 40 mM MOPS pH 7.0, 3.2 mM MgCl2, 75 mM KCl, 1 mM EGTA, 1 h at 25°C; compounds added to set the catalytic states of SERCA2b (E2, E2-ATP, E1Ca2, E1PCa2, E2V, E1·AlFx·ADP, E2·AlF4) and free Ca2+ 0-100 μM; blot, band at ~120 kDa

Chains of the proteins cited; added tags and fusions are not shown.
UniProt O55143: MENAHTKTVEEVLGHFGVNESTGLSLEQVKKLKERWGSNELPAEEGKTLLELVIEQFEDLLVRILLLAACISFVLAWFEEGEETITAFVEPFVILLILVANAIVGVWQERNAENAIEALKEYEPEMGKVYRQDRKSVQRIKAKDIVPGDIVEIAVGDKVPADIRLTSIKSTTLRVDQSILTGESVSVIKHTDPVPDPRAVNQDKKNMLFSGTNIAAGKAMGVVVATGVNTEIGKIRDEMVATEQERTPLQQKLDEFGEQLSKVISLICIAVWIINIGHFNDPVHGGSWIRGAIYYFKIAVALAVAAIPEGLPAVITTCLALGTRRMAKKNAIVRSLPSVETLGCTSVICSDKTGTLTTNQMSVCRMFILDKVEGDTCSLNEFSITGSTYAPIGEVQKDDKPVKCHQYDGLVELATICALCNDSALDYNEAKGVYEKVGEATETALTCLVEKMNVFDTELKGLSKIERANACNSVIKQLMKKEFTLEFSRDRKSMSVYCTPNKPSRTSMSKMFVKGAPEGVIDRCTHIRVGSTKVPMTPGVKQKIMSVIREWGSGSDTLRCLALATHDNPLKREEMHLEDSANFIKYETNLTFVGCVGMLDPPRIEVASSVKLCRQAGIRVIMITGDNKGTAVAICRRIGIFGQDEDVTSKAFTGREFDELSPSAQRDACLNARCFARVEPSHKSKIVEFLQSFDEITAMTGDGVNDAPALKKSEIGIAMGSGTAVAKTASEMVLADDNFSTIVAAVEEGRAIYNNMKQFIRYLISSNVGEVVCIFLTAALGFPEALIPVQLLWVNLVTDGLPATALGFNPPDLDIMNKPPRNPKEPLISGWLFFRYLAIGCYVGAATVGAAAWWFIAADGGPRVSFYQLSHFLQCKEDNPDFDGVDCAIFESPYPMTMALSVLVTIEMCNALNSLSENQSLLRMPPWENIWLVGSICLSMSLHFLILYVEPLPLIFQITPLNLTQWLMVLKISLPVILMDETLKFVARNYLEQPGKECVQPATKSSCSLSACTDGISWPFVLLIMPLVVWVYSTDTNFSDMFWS

binding [1]	binding [2]	Binder
binds	–	endogenous C4orf3/ALN protein (protein, UniProt Q99M08 1-65) MEVSQAASGTDGVRERRGSFEAGRRNQDEAPQSGMNGLPKHSYWLDLWLFILFDLALFVFVYLLP
–	binds	Mouse C4ORF3/ALN^W48C (protein, UniProt Q99M08 1-65) MEVSQAASGTDGVRERRGSFEAGRRNQDEAPQSGMNGLPKHSYWLDLCLFILFDLALFVFVYLLP

Source: paper PMC12137002
